From the supplement of paper PMC3334620
Whole data set: some 33,000 sequences, median “E-score (-0.5 to 0.5)” near -8e-05, cut for the highest 2% near 0.23. The list shows a part of the results.

Each sequence was assayed against T1, Nrg2 (UniProt P38082) (assay: PBM E-score (8-mer binding enrichment) (E-score (-0.5 to 0.5)); higher = stronger / more preferred TF binding). Details: protein concentration: 100 nM; construct: GST-full length.
T1 sequence: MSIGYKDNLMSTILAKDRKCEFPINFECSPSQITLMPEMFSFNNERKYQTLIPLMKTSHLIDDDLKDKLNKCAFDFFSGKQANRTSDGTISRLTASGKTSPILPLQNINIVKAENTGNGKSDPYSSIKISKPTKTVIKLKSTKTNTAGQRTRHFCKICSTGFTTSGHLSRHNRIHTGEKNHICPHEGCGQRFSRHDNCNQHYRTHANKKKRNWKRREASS
Method in brief: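 Using PURExpress in vitro transcription/translation, GST-tagged yeast transcription factors were made in full-length or DNA-binding-domain form. These were applied at about 100-200 nM to double-stranded universal all-10-mer Agilent arrays, and bound protein was detected with fluorescent anti-GST. Scans were normalised with masliner before the Universal PBM Analysis Suite assigned E-scores to ungapped eight-base words pooled with their reverse complements.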

| Sequence | PBM E-score |
| --- | --- |
| TAGCCGGA | 0.0758 |
| GGGCAAAC | 0.0602 |
| GACGCCAA | -0.127 |
| AACGACAG | -0.0361 |
| GAAGAGTA | 0.0187 |
| CGGGAACA | 0.0862 |
| CCAAGCTA | 0.0116 |
| AAATAGAG | -0.0562 |
| CCGATTTA | 0.0969 |
| ACCTAAGA | 0.0161 |
| AGGAATAA | 0.115 |
| ATACCATG | -0.0769 |
| ACAAATCT | 0.0536 |
| GGCTCGCA | 0.0356 |
| ACCCTGCC | 0.0806 |
| GCACAATA | -0.0537 |
| ATTGGAAG | -0.113 |
| ATGTATCC | 0.0124 |
| GATGCGAA | 0.06 |
| TGTCGAAA | -0.00208 |
| GGCAATAA | 0.048 |
| CTCCTGCC | -0.171 |
| AGAAACTG | 0.0813 |
| CGAACTGC | -0.0594 |
| CGACTTAA | -0.157 |

Rewritten as comma-separated lines: part of the list above.
Sequence,PBM E-score
CGGGAACA,0.0862
ATGTATCC,0.0124

Next records follow:

| Sequence | PBM E-score |
| --- | --- |
| ATCTAGTG | -0.0325 |
| AGTAAGGG | 0.233 |
| GGTGGAGA | -0.149 |
| CAATAGTG | -0.0138 |
| CAGATTGA | -0.00691 |
| CTGGTGAC | -0.211 |
| GGAAAGCA | -0.0468 |
| GATCAAGC | -0.0799 |
| AGGGGTGG | 0.0388 |
| CAAGACTG | 0.076 |
| CCGCCAAG | -0.0825 |
| GAGCACCA | -0.0692 |
| CACACGTG | -0.123 |
| CATCCGTA | -0.0267 |
| ACAAGACG | -0.0224 |
| CGCCTGGC | -0.199 |
| CGATGCCC | -0.103 |
| AATTGGAA | 0.0257 |
| CGGTGCGA | -0.168 |
| ATTGGAGA | 0.16 |
| CCAGACGG | -0.254 |
| ACAACTCA | 0.189 |
| AGGCTATC | -0.133 |
| GTACTCAA | 0.0912 |
| ACGTGGGA | -0.166 |

| Sequence | PBM E-score |
| --- | --- |
| AATTCGAT | 0.0692 |
| AGAGGTTA | -0.0297 |
| AATCACCG | 0.118 |
| TGCCGAAA | 0.124 |
| CCGCTATA | 0.0143 |
| AATAGGAA | 0.0574 |
| GTAGCCAA | -0.104 |
| CGCTGGCC | -0.252 |
| CCAGAGAG | -0.0955 |
| AGCAGCTG | 0.0638 |
| CGAGAGTA | 0.0862 |
| AGTATAAG | 0.0425 |
| CGACAGTC | -0.249 |
| GTAGGCGA | 0.0848 |
| AAACCGTT | -0.0711 |
| ATAAGATA | 0.161 |
| CAGTGTGC | -0.125 |
| ACACTCCG | -0.0613 |
| CAGAGTGA | 0.00026 |
| AGGATGGC | -0.00026 |
| AAGACCAC | -0.24 |
| CTCATTGA | -0.0879 |
| AACTCGAT | 0.097 |
| CGATAACG | -0.12 |
| CATGCATC | -0.00044 |

| Sequence | PBM E-score |
| --- | --- |
| ACCAAAAT | 0.0735 |
| CTCAAGTA | -0.0154 |
| ACCCCCCC | -0.487 |
| ACCCCGGC | -0.119 |
| CAGATACA | 0.0962 |
| GATAACGC | 0.102 |
| AGGCCAGC | -0.0664 |
| CCTGCGGA | -0.0208 |
| CAACATCA | 0.219 |
| TAGGTACA | -0.115 |
| CGCTGCCA | -0.203 |
| AGCAGACG | 0.0994 |
| ACGTTTAT | 0.00747 |
| CCACGATC | 0.0804 |
| GTCTTTGA | -0.193 |
| GATGAGGA | -0.0383 |
| TATAGACA | 0.0604 |
| GTATGAAA | 0.0865 |
| ATTCGAGC | 0.0426 |
| AGGCGTTC | -0.0836 |
| GGATTGAA | 0.0664 |
| GGGGGTAA | -0.374 |
| GGGGGGGA | -0.446 |
| AAGTAACG | 0.0587 |
| ACAGGGTA | 0.349 |

| Sequence | PBM E-score |
| --- | --- |
| AAGTTAGT | 0.021 |
| AACTACTG | 0.0512 |
| CACGAGTA | 0.121 |
| GGGGACAA | 0.0829 |
| TCACATGA | -0.129 |
| GAATACGA | 0.0569 |
| AGTTGCGC | 0.0828 |
| ATAGACAA | 0.17 |
| ATGGATAG | -0.0889 |
| AACAGGGT | 0.211 |
| CCCCTGCC | 0.0503 |
| ACATGGCT | -0.0984 |
| ATGGATTA | -0.14 |
| AGTTGGTG | 0.0201 |
| CCTCATAA | -0.131 |
| ACAACCAC | -0.0501 |
| CCACCGGA | -0.0356 |
| GCGGCGAC | 0.0679 |
| ATCATTGC | -0.0784 |
| TGATACCA | 0.0617 |
| AGACAAGC | 0.0792 |
| CTTCGGAC | 0.0444 |
| CGTAGCAC | 0.0106 |
| AAACGCTC | -0.257 |
| AAATCGAC | 0.237 |

| Sequence | PBM E-score |
| --- | --- |
| TCGATGCA | 0.0441 |
| GAGAGATC | 0.0983 |
| AATTGGGT | 0.26 |
| CTGACGTC | 0.0649 |
| ATCGCCCA | -0.111 |
| AGCCGGCG | -0.0749 |
| GTAGAGCA | -0.216 |
| TCCGTAAA | -0.0349 |
| ACACGACA | 0.127 |
| ACAACGAT | -0.0519 |
| CCCTCGGA | 0.0471 |
| CAGGCCGA | 0.0757 |
| CGACCCAG | 0.0561 |
| CTTCTCAC | 0.0533 |
| CCTCGCAC | 0.0531 |
| TCTGACCA | 0.216 |
| AGCGCTCG | -0.0806 |
| ACTCTGGG | 0.0604 |
| CAAGCTGA | 0.144 |
| GATGTTGA | -0.016 |
| CCCTGTGC | 0.263 |
| CTTCCTTA | -0.129 |
| AAGGGGCA | 0.0413 |
| ACCCTACT | 0.0864 |
| GGGGTTTA | -0.0777 |

Quoted from the listing:
PBM E-score, ATTGGAAG reads -0.113
PBM E-score, TGTCGAAA reads -0.00208
PBM E-score, GTCTTTGA reads -0.193
PBM E-score, AGCCGGCG reads -0.0749
PBM E-score, CCAAGCTA reads 0.0116
PBM E-score, CAGATTGA reads -0.00691
PBM E-score, CGATAACG reads -0.12

(next part)

| Sequence | PBM E-score |
| --- | --- |
| CAGTTGCC | -0.092 |
| GCACAACC | -0.0363 |
| CTGATCTC | -0.0447 |
| CAAATCTC | 0.0453 |
| AAATGGGT | 0.125 |
| ATTATGGA | -0.00592 |
| AGTTTCGG | 0.2 |
| GAAACGCC | -0.0514 |
| TGCAGCAA | 0.201 |
| GAGGCATC | -0.234 |
| CCGGGGGA | -0.316 |
| AGACAGGA | 0.118 |
| ATGCAATG | -0.0204 |
| ATCGCTGC | 0.0561 |
| GAGCCTGC | -0.0298 |
| AAACGGAC | -0.205 |
| CTTAAGAA | 0.0514 |
| CCAGCCTC | -0.23 |
| ATGAGCCC | -0.0471 |
| GCGTTGGA | -0.12 |
| CTCATTCA | 0.161 |
| CATTATAC | 0.204 |
